Here are results for one molecule from patent publication US20180118821A1 (Eli Lilly, published 2018).

The target of the test is Cynomolgus monkey IL-33 (cynomolgus monkey). As to the kind of experiment: SPR (Biacore T100/T200), antibody captured on Protein A. On the technique in general: Surface plasmon resonance follows binding to a sensor surface in real time, without labels.

No constants are given. Whether binding was seen depends on the method and setting. Some results given as binding are weak or reduced against the parent protein; the word gives no strength.

B1: Antibody 43 (antibody, human IgG4 S228P, kappa, F234A L235A, V domains shown)
VH: EVQLVETGGGLIQPGGSLRLSCAASGFTFSFYAMSWVRQAPGKGLEWVSAISGSGGSTYYADSVKGRFTISRDNSKNTLYLQMNSLRAEDTAVYYCARTIHGIRAAYDAFIIWGQGTLVTVSS
VL: EIVLTQSPGTLSLSPGERATLSCRASQSVGINLSWYQQKPGQAPRLLIYGASHRLTGIPDRFSGSGSGTDFTLTISRLEPEDFAVYYCHQYSQPPPFTFGGGTKVEIKR
notes: Derived from Antibody 54 by engineering to reduce potential immunogenicity; expressed in CHO cells; also called Ab 43; Exemplified Antibody
Turning to B1, the binding result is listed as “binds”.
